These are yes or no findings as the source states them, for the method shown. Some binding calls cover weakened binding; strength is not graded here. Sequences can lack the tags named with a protein.
Molecular target: T1, LexA DNA binding domain fused to full length human Centaurin-α2 (bait, pSTT91-Centaurin-α2) (human) (UniProt Q9NPF8)
T1 sequence: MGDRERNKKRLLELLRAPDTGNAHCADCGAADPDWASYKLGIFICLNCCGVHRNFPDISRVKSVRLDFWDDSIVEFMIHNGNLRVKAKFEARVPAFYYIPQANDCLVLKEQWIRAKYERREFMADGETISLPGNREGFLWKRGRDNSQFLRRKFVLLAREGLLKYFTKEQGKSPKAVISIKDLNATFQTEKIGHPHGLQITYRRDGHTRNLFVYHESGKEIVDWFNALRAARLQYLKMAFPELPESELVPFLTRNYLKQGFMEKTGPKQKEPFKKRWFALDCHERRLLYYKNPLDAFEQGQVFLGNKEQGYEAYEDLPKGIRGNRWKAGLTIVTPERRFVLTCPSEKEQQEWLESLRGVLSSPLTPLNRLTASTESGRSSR
Test: two-hybrid; S. cerevisiae L40; baits fused to a DNA binding domain (LexA; pSTT91 or pBTM116), preys in pACT2 (GAL4 fusion); growth on selective medium and β-galactosidase filter assay at 30°C

Sequences of proteins named here, by UniProt entry; tags and fusion partners are left off. Residues count along the entry.
UniProt P07437, residues 329-444: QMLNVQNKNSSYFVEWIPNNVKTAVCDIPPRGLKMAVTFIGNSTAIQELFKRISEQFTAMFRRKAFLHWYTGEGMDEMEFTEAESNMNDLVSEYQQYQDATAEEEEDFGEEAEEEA

binding: binds
Substance: Tubulin β chain class I, prey clone encoding the last 116 amino acids of the C-terminal region (pACT2, GAL4 fusion) (from UniProt P07437 329-444) (domain or fragment)
